Source: the supplement of paper PMC10849652
Some of the results follow.

Sequences of proteins named here, by UniProt entry; tags and fusion partners are left off. A change or cut given only in a name is not applied to a line headed by its entry.
UniProt Q92556, whole entry, looked up: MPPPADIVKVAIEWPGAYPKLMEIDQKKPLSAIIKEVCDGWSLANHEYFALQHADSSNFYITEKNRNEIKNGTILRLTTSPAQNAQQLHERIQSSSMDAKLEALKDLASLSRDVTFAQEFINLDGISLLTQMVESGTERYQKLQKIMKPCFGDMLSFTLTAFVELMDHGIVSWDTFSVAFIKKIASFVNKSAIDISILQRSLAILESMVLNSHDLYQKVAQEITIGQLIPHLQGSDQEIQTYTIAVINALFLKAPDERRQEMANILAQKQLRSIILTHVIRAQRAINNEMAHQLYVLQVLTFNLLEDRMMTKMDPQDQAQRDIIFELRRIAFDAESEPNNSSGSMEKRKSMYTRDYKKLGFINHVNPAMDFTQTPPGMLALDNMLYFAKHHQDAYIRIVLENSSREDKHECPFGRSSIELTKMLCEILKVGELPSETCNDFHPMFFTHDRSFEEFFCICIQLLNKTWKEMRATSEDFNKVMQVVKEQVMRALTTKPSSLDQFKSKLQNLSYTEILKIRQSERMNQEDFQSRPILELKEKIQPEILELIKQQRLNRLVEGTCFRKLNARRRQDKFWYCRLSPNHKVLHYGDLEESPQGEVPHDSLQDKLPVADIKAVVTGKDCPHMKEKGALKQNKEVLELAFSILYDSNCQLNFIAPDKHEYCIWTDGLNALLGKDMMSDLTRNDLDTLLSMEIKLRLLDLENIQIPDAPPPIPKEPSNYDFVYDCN
UniProt P09104, whole entry, looked up: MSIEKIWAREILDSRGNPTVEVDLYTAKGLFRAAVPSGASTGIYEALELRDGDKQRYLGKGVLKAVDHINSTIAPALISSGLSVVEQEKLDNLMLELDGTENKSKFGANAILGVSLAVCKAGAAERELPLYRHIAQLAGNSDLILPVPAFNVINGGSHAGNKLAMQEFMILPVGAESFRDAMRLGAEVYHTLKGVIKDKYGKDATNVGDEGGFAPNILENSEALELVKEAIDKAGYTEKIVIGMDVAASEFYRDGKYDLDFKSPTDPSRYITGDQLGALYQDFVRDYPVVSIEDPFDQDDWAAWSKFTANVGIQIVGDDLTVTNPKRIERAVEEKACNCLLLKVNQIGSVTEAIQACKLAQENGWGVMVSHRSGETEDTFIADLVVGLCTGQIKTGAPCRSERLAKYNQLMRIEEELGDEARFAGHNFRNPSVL
UniProt Q15717, whole entry, looked up: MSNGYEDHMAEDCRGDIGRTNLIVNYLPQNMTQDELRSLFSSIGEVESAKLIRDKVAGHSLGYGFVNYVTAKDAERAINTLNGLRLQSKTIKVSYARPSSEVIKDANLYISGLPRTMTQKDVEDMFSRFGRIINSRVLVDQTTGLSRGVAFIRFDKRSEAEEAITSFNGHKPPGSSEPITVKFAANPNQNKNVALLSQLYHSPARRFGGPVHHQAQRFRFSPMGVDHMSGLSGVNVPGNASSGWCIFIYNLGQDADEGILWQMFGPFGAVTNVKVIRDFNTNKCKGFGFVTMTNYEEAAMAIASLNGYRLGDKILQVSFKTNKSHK
UniProt P50402: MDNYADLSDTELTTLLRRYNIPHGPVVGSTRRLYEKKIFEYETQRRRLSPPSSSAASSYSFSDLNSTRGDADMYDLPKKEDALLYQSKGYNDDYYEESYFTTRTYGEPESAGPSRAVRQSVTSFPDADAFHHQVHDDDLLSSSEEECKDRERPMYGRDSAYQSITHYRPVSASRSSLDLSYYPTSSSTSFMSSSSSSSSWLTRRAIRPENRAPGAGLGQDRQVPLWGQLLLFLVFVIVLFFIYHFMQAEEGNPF
UniProt Q92889: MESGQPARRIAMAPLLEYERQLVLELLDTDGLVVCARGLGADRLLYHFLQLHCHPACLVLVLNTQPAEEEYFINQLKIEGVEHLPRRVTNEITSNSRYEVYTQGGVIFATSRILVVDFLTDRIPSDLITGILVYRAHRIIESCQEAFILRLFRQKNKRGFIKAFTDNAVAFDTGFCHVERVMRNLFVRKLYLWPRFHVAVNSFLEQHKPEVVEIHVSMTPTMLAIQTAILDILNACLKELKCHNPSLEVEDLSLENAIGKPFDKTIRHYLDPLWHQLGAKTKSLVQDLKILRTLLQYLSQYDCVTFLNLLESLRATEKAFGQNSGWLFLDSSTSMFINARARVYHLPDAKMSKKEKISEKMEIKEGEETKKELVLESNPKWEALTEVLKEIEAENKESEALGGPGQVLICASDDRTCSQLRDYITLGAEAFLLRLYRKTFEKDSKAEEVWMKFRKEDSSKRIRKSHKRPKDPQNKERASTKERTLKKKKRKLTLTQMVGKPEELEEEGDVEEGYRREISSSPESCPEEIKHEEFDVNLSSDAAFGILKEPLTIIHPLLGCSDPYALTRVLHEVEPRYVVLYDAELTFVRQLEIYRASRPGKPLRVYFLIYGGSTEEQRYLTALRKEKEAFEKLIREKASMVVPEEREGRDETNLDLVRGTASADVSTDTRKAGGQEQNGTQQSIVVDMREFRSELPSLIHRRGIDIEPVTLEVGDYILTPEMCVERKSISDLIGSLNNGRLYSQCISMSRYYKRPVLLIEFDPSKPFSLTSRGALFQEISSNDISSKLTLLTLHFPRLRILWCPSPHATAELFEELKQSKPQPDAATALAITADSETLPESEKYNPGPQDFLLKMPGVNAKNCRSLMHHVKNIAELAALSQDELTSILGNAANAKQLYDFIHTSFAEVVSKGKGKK
UniProt Q9UI10, whole entry, looked up: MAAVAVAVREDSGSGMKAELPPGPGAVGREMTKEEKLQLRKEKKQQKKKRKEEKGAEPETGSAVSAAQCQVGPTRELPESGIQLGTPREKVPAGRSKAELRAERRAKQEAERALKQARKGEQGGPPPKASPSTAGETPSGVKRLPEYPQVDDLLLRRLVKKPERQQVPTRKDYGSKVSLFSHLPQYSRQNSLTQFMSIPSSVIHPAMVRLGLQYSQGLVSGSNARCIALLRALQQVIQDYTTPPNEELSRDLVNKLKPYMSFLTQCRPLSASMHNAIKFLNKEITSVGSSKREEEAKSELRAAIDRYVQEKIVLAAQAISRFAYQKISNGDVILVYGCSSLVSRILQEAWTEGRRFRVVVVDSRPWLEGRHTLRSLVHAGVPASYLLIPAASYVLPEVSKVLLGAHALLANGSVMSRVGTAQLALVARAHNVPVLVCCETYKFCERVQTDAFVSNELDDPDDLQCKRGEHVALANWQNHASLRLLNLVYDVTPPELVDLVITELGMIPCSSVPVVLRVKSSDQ
UniProt Q5NDL2: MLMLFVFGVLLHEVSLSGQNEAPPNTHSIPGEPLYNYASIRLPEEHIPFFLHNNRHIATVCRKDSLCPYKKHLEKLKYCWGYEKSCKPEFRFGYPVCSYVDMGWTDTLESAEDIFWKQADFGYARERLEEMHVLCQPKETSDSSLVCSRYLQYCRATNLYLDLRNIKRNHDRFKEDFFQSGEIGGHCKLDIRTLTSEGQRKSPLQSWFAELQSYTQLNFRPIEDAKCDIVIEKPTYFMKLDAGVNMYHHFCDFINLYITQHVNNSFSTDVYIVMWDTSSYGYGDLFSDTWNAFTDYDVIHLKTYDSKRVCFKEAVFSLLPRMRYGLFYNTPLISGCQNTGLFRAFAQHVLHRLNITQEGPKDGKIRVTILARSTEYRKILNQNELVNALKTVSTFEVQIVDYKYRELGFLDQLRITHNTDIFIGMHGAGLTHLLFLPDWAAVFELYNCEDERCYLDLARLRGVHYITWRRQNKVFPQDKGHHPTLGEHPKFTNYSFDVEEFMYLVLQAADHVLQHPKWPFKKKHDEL
UniProt Q6IA86: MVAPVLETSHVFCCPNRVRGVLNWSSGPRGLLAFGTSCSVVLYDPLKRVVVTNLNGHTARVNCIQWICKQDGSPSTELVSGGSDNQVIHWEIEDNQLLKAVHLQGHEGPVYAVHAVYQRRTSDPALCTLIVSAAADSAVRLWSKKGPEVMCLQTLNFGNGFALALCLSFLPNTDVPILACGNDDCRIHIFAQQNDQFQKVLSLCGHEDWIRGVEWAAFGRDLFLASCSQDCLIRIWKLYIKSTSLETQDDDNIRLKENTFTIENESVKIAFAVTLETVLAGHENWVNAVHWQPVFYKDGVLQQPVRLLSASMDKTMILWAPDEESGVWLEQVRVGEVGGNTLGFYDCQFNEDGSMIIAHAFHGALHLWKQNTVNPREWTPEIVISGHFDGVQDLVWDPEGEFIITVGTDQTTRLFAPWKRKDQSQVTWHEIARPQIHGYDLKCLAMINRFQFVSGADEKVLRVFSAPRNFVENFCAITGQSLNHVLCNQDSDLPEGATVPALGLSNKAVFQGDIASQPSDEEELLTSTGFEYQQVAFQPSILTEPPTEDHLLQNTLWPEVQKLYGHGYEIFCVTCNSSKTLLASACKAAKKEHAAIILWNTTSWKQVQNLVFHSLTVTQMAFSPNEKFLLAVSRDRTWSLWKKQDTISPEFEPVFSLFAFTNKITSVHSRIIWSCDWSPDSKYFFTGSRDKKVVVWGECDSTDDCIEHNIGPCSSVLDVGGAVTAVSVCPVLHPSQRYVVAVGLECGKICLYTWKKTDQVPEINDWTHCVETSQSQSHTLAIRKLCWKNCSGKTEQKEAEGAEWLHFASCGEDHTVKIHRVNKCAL
UniProt Q9Y2J2, whole entry, looked up: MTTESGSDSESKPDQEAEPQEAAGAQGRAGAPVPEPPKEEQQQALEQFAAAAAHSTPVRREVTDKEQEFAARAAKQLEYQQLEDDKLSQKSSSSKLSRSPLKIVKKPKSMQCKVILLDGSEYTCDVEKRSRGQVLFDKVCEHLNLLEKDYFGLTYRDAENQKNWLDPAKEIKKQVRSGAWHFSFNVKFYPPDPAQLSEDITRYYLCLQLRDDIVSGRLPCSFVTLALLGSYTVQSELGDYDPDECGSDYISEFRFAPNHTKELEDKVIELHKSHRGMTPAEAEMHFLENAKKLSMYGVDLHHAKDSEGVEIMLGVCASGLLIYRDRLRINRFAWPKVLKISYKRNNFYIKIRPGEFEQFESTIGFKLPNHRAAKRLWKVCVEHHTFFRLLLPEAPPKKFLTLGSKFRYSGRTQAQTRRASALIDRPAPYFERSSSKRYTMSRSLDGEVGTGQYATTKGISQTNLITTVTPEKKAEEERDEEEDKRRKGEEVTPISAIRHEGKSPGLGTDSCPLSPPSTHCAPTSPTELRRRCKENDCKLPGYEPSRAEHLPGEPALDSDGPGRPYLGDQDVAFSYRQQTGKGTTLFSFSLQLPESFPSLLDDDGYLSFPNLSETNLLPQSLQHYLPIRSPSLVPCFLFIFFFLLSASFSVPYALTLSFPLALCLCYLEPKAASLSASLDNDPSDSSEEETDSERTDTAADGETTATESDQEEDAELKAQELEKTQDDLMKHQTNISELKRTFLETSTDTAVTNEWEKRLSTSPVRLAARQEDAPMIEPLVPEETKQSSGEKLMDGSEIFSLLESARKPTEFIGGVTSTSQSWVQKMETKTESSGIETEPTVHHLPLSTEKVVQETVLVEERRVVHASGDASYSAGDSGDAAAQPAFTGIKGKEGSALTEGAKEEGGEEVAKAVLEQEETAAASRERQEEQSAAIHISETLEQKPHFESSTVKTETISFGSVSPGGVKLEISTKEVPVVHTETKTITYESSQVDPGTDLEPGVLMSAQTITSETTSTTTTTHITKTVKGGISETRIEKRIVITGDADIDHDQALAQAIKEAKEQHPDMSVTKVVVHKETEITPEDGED
UniProt Q15369, whole entry, looked up: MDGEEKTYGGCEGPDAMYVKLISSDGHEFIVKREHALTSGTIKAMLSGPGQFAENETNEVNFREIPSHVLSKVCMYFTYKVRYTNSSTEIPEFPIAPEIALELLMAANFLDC
UniProt P41214: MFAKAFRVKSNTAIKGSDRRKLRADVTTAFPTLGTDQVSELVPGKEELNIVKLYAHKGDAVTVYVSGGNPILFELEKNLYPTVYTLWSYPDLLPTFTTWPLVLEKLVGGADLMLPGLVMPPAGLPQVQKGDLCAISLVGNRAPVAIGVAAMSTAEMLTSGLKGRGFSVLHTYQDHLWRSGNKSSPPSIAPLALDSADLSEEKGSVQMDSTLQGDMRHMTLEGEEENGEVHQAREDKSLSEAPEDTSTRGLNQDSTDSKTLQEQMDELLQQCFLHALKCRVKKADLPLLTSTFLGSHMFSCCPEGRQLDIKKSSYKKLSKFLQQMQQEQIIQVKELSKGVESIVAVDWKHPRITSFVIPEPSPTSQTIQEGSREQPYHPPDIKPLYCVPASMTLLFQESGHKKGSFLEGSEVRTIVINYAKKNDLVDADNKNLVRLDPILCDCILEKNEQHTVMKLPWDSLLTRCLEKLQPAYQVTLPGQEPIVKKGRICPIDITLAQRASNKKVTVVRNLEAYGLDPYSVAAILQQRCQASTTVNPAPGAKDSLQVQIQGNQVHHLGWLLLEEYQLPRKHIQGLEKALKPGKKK

Compound: NC(=O)Nc1cc(-c2cccc(F)c2)sc1C(=O)N[C@H]1CCCNC1
Experiment: log2 fold change, soluble protein after heating vs DMSO (PISA); higher = thermal stabilisation; K562 lysate, 10 uM; active = over 0.2 and 3.5 SD of the protein, either way, in both replicates (recomputed)
Procedure, shortened: (§1)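 To prepare the extract, K562 pellets were dounce-homogenised in PBS pH 7.4 with 1 mM MgCl2, giving crude material at 1 mg/mL protein. This was treated with 10 μM compound for 30 min, then heated in aliquots for 3 min over 48°C-58°C before pooling and addition of NP-40 to 0.5% at 4°C. Centrifugation at 21,000xg for 90 min left soluble protein in the supernatant, which TMTpro 16plex LC-MS/MS quantified with equalised channel sums. Results are log-two fold changes in thermal stability compared with solvent controls, from duplicates.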

log2 fold change, inactive:
ELMO1 (UniProt Q92556) 0.033
ENO2 (UniProt P09104) 0.001
ELAVL1 isoform 2 (UniProt Q15717) 0.034
EMD (UniProt P50402) 0.052
ERCC4 (UniProt Q92889) 0.041
EIF2B4 isoform 2 (UniProt Q9UI10) 0.074
EOGT (UniProt Q5NDL2) -0.002
ELP2 isoform 6 (UniProt Q6IA86) 0.001
EIF4H (UniProt Q15056) 0.022
EPB41L3 (UniProt Q9Y2J2) 0
ELOC (UniProt Q15369) -0.006
EIF2D (UniProt P41214) 0.04

Compound: NC(=O)c1cnc(N[C@@H]2CCCC[C@@H]2N)nc1Nc1cccc(-n2nccn2)c1
Experiment: as above
Procedure, shortened: as §1

log2 fold change, inactive:
ELOVL6 (UniProt Q9H5J4) -0.307
EMC8 (UniProt O43402) -0.003
ERCC3 (UniProt P19447) -0.037
EIF3D (UniProt O15371) -0.004
ERAL1 (UniProt O75616) -0.052
EIF4A2 isoform 2 (UniProt Q14240) -0.014
ERC1 (UniProt X6RLX0) 0.009
EMG1 (UniProt Q92979) -0.006
ENPP3 (UniProt O14638) 0.022
EIF2S3 (UniProt P41091) -0.018
EIF2B2 (UniProt P49770) -0.018
ELMO2 (UniProt Q96JJ3) 0.05
EPB41 (UniProt P11171) 0.012
EIF2AK4 (UniProt Q9P2K8) 0.044
EP400P1 isoform 6 (UniProt Q6ZTU2) 0.13
ELMOD2 (UniProt Q8IZ81) 0.018
ELAVL4 (UniProt P26378) 0.01
ENGASE (UniProt Q8NFI3) 0.011
EPM2AIP1 (UniProt Q7L775) 0.017
ELF1 (UniProt P32519) -0.006
EIF4E2 (UniProt O60573) 0.001
EIF5A isoform 2 (UniProt P63241) -0.008
EIF4EBP2 (UniProt Q13542) 0.029
ELMO1 (UniProt Q92556) -0.035
ENO2 (UniProt P09104) -0.043
ELAVL1 isoform 2 (UniProt Q15717) 0.008
EMD (UniProt P50402) 0.002
ERCC4 (UniProt Q92889) 0.027
EIF2B4 isoform 2 (UniProt Q9UI10) -0.003
EOGT (UniProt Q5NDL2) 0.001
ELP2 isoform 6 (UniProt Q6IA86) -0.007
EIF4H (UniProt Q15056) 0.024
EPB41L3 (UniProt Q9Y2J2) -0.022
ELOC (UniProt Q15369) -0.068
EIF2D (UniProt P41214) 0.008

Compound: NC1(c2ccc(-c3nc4ccn5c(=O)[nH]nc5c4cc3-c3ccccc3)cc2)CCC1
Experiment: as above
Procedure, shortened: as §1

log2 fold change, inactive:
ELOVL6 (UniProt Q9H5J4) 0.076
EMC8 (UniProt O43402) 0.053
ERCC3 (UniProt P19447) 0.027
EIF3D (UniProt O15371) -0.036
ERAL1 (UniProt O75616) 0.008
EIF4A2 isoform 2 (UniProt Q14240) 0.015
ERC1 (UniProt X6RLX0) 0.019
EMG1 (UniProt Q92979) -0.032
ENPP3 (UniProt O14638) 0.053
EIF2S3 (UniProt P41091) -0.008
EIF2B2 (UniProt P49770) 0.006
ELMO2 (UniProt Q96JJ3) 0.039
EPB41 (UniProt P11171) 0.003
EIF2AK4 (UniProt Q9P2K8) -0.031
EP400P1 isoform 6 (UniProt Q6ZTU2) -0.126
ELMOD2 (UniProt Q8IZ81) 0.02
ELAVL4 (UniProt P26378) 0.024
ENGASE (UniProt Q8NFI3) -0.025
EPM2AIP1 (UniProt Q7L775) -0.008
ELF1 (UniProt P32519) -0.026
EIF4E2 (UniProt O60573) -0.031
EIF5A isoform 2 (UniProt P63241) -0.009
EIF4EBP2 (UniProt Q13542) 0.181
ELMO1 (UniProt Q92556) 0.023
ENO2 (UniProt P09104) 0.003
ELAVL1 isoform 2 (UniProt Q15717) 0.03
EMD (UniProt P50402) 0.048
ERCC4 (UniProt Q92889) -0.004
EIF2B4 isoform 2 (UniProt Q9UI10) 0.002
EOGT (UniProt Q5NDL2) -0.032
ELP2 isoform 6 (UniProt Q6IA86) -0.015
EIF4H (UniProt Q15056) -0.004
EPB41L3 (UniProt Q9Y2J2) 0.053
ELOC (UniProt Q15369) -0.019
EIF2D (UniProt P41214) -0.041
